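JIM1 multiple myeloma cell line viability, measured as ATP-driven CellTiter-Glo luminescence after 48 hours of compound exposure.
Compounds were tested as a dilution series from about 3.1e-05 to 92 µM, mostly topping out near 45.8 µM.
The number is the fitted AC50 potency for cell killing; a lower value means a more potent compound.
Calls follow NCATS curve-class scoring: inconclusive compounds get scores of 1 to 39, with a curve class other than 4, and actives get 40 to 100.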

Values are in µM.
Every entry below has the call inconclusive.
These entries are mostly ones the record files as inconclusive; other results of the assay are not listed here.
A potency from a partial, single-point or poor curve is only a rough figure.
Some entries filed as inconclusive have a full curve.
The first word of each remark tells which way the curve ran; it can be opposite to the aim of the assay.
Activity scores are not listed here.

compound | Potency (µM) | curve
COc1cc(Nc2ncc(F)c(Nc3ccc4c(n3)NC(=O)C(C)(C)O4)n2)cc(OC)c1OC | 0.0469 | cytotoxic, full curve, poor fit
CN1CCc2c(n(Cc3ccc(C(=O)NO)cc3)c3ccccc23)C1 | 6.619 | cytotoxic, full curve, poor fit
O=C(NCC1CN(c2ccc(N3CCOCC3=O)cc2)C(=O)O1)c1ccc(Cl)s1 (centres unmarked) | 37.22 | cytotoxic, single point
CN1CCCC(n2nc(Cc3ccc(Cl)cc3)c3ccccc3c2=O)CC1 (centres unmarked) | 2.635 | cytotoxic, full curve, poor fit
C#C[C@]1(O)CC[C@@H]2[C@@H]3CCc4cc(O)ccc4[C@H]3CC[C@@]21C | 10.49 | cytotoxic, full curve
CC(C)c1cc(C(C)C)c(CC(=O)NS(=O)(=O)Oc2c(C(C)C)cccc2C(C)C)c(C(C)C)c1 | 5.258 | cytotoxic, partial curve, poor fit
CN1C(=O)C(Cc2c[nH]c3ccccc23)NC1=S (centres unmarked) | 0.0296 | cytotoxic, full curve, poor fit
CC(C)(Sc1cc(C(C)(C)C)c(O)c(C(C)(C)C)c1)Sc1cc(C(C)(C)C)c(O)c(C(C)(C)C)c1 | 11.77 | cytotoxic, full curve, poor fit
CC(C)CN(C[C@H](O)[C@H](Cc1ccccc1)NC(=O)O[C@H]1CCOC1)S(=O)(=O)c1ccc(N)cc1 | 0.0019 | cytotoxic, full curve, poor fit
C[C@H](NC(=O)C(C#N)=Cc1cccc(Br)n1)c1ccccc1 | 11.77 | cytotoxic, partial curve, poor fit
Cc1nc(N)sc1-c1ccnc(Nc2ccc(N3CCOCC3)cc2)n1 | 11.77 | cytotoxic, partial curve, poor fit
CC(C)(O)CC(=O)NCCn1ccc2ncnc(Nc3ccc(Oc4cccc(C(F)(F)F)c4)c(Cl)c3)c21 | 7.427 | cytotoxic, full curve, poor fit
CCc1cc2c(cc1N1CCC(N3CCOCC3)CC1)C(C)(C)c1[nH]c3cc(C#N)ccc3c1C2=O | 0.0209 | rising, full curve, poor fit
Nc1ccc(S(=O)(=O)Nc2ccnn2-c2ccccc2)cc1 | 0.0372 | rising, full curve, poor fit
CC(C)C[C@H](NC(=O)[C@H](Cc1ccccc1)NC(=O)c1cnccn1)B(O)O | 0.0105 | cytotoxic, full curve, poor fit
COc1cc(C[C@@H](CO)[C@H](CO)Cc2ccc(O)c(OC)c2)ccc1O | 7.427 | cytotoxic, partial curve, poor fit
O=C(Nc1ccc(F)c(C(F)(F)F)c1)Nc1nnc(-c2ccncc2)s1 | 5.258 | cytotoxic, partial curve, poor fit
Cc1ccccc1C(=O)Nc1ccc(C(=O)N2CCCC(O)c3cc(Cl)ccc32)c(C)c1 (centres unmarked) | 0.4686 | cytotoxic, full curve, poor fit
CCC(C)(Oc1ccc(C2(c3ccc(OC(C)(CC)C(=O)O)cc3)CCCCC2)cc1)C(=O)O (centres unmarked) | 0.8333 | cytotoxic, full curve, poor fit
CC1(C)O[C@@H]2C[C@@H]3[C@H]4C[C@@H](F)C5=CC(=O)C=C[C@]5(C)[C@@]4(F)[C@@H](O)C[C@]3(C)[C@]2(C(=O)CO)O1 | 8.333 | cytotoxic, full curve, poor fit
NS(=O)(=O)OC[C@@H]1C[C@@H](n2ccc3c(N[C@H]4CCc5ccccc54)ncnc32)C[C@H]1O | 0.4686 | cytotoxic, full curve
CCCCc1nc2cc(C=CC(=O)NO)ccc2n1CCN(CC)CC | 0.0148 | cytotoxic, full curve, poor fit
C[C@H]1[C@H](O)O[C@@H]2O[C@@]3(C)CC[C@@H]4[C@H](C)CC[C@@H]1[C@@]24OO3 | 2.957 | cytotoxic, full curve
CC1(CN2CCC(n3c(=O)[nH]c4ccccc43)CC2)OCc2ccccc2-n2cccc21 (centres unmarked) | 1.177 | cytotoxic, full curve
CC[C@]12C=CCN3CC[C@@]4(c5cc([C@@]6(C(=O)OC)C[C@H]7C[C@@H](C(C)(F)F)CN(Cc8c6[nH]c6ccccc86)C7)c(OC)cc5N(C)[C@H]4[C@@](O)(C(=O)OC)[C@H]1OC(C)=O)[C@@H]32 | 33.17 | rising, single point
CN[C@@H]1C[C@H]2O[C@@](C)([C@H]1OC)n1c3ccccc3c3c4c(c5c6ccccc6n2c5c31)C(=O)N[C@H]4O | 0.0743 | cytotoxic, full curve
CC1(C)C(N(O)C(=O)Nc2ccc(Cl)cc2)N(c2ccc(Cl)cc2)C(=O)N1CC(=O)NN=CC=Cc1ccc([N+](=O)[O-])o1 (centres unmarked) | 2.957 | cytotoxic, partial curve, poor fit
CS[C@H]1SC[C@@H]2C(=O)N(C)[C@H](C(C)C)C(=O)OC[C@H](NC(=O)c3cnc4ccccc4n3)C(=O)N[C@H](C)C(=O)N(C)[C@@H]1C(=O)N(C)[C@H](C(C)C)C(=O)OC[C@H](NC(=O)c1cnc3ccccc3n1)C(=O)N[C@H](C)C(=O)N2C | 0.0047 | cytotoxic, full curve
Nc1nc(N)c2nc(CNc3ccc(C(=O)NC(CCC(=O)O)C(=O)O)cc3)cnc2n1 (centres unmarked) | 3.722 | cytotoxic, partial curve, poor fit
CCOc1cc(C=C2C(=O)N(c3ccccc3)N=C2C)cc(Cl)c1OCC(=O)OC | 5.899 | cytotoxic, full curve, poor fit
CCOC(=O)C1=C(C)NC2=C(C(=O)CC(C)(C)C2)C1c1ccc(-c2ccccc2)cc1 (centres unmarked) | 1.049 | cytotoxic, partial curve, poor fit
Cc1cnc(CNC(=O)c2c(=O)c3ccc(N4CCCN(C)CC4)nc3n3c2sc2ccccc23)cn1 | 8.12 | cytotoxic, partial curve, poor fit
Cc1nc2cnc3ccc(C#Cc4cccnc4)cc3c2n1-c1ccc(C(C)(C)C#N)cc1 | 0.0105 | rising, full curve
Cc1cc2c(C(C)C)c(O)c(O)c(C=O)c2c(O)c1-c1c(C)cc2c(C(C)C)c(O)c(O)c(C=O)c2c1O | 14.82 | cytotoxic, partial curve, poor fit
CCn1c(-c2nonc2N)nc2cncc(CNC3CCNCC3)c21 | 1.177 | cytotoxic, full curve, poor fit
COc1cc(NS(=O)(=O)c2ccc(N)cc2)nc(OC)n1 | 6.619 | rising, full curve, poor fit
Cc1nnc(NS(=O)(=O)c2ccc(N)cc2)s1 | 2.957 | cytotoxic, full curve, poor fit
COc1cccc(-c2ccc(NC(=O)C3=C(C(=O)O)CCC3)c(F)c2)c1 | 0.0105 | cytotoxic, full curve, poor fit
COc1ccccc1[C@H](c1cccc2ccccc12)[C@@](C)(C#N)C(=O)N1CCC(c2cccc(C(F)(F)F)c2)CC1 | 2.093 | cytotoxic, full curve, poor fit

The last 4 entries again:

compound	Potency (µM)	curve
COc1cc(NS(=O)(=O)c2ccc(N)cc2)nc(OC)n1	6.619	rising, full curve, poor fit
Cc1nnc(NS(=O)(=O)c2ccc(N)cc2)s1	2.957	cytotoxic, full curve, poor fit
COc1cccc(-c2ccc(NC(=O)C3=C(C(=O)O)CCC3)c(F)c2)c1	0.0105	cytotoxic, full curve, poor fit
COc1ccccc1[C@H](c1cccc2ccccc12)[C@@](C)(C#N)C(=O)N1CCC(c2cccc(C(F)(F)F)c2)CC1	2.093	cytotoxic, full curve, poor fit

From PubChem BioAssay record AID1918964 (NCATS, 2023).